Patent US20250231193A1
No constants are given. Whether binding was seen depends on the method and setting. Binding seen in cells or lysates may run through a third protein. Some entries that bind do so weakly or less than the wild type.

Protein sequences, listed by entry. Tags and fused reporters are not part of them. Lines headed by an entry give the natural chain unless they say otherwise; changes in a name come on top.
UniProt P05556: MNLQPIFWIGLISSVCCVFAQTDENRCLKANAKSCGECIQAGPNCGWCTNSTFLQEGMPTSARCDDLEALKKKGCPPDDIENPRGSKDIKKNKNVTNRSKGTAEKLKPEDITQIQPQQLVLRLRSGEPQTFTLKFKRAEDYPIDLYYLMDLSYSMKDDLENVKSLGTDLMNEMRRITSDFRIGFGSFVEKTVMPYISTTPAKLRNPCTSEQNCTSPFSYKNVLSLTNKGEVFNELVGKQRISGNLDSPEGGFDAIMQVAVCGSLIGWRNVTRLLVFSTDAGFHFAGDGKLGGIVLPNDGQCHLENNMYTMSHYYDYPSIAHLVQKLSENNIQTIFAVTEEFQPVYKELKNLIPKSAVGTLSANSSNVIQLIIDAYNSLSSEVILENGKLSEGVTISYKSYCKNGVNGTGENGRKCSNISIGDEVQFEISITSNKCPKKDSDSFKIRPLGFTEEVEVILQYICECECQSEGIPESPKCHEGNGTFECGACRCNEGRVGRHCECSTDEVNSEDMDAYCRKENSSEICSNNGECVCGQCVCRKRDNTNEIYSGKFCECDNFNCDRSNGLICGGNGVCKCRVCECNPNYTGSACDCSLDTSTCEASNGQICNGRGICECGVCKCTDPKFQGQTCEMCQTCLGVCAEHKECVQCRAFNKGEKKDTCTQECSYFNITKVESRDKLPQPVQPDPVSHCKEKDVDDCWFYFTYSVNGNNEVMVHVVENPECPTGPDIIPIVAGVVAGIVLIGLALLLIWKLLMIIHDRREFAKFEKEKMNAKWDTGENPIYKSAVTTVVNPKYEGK
UniProt P06756: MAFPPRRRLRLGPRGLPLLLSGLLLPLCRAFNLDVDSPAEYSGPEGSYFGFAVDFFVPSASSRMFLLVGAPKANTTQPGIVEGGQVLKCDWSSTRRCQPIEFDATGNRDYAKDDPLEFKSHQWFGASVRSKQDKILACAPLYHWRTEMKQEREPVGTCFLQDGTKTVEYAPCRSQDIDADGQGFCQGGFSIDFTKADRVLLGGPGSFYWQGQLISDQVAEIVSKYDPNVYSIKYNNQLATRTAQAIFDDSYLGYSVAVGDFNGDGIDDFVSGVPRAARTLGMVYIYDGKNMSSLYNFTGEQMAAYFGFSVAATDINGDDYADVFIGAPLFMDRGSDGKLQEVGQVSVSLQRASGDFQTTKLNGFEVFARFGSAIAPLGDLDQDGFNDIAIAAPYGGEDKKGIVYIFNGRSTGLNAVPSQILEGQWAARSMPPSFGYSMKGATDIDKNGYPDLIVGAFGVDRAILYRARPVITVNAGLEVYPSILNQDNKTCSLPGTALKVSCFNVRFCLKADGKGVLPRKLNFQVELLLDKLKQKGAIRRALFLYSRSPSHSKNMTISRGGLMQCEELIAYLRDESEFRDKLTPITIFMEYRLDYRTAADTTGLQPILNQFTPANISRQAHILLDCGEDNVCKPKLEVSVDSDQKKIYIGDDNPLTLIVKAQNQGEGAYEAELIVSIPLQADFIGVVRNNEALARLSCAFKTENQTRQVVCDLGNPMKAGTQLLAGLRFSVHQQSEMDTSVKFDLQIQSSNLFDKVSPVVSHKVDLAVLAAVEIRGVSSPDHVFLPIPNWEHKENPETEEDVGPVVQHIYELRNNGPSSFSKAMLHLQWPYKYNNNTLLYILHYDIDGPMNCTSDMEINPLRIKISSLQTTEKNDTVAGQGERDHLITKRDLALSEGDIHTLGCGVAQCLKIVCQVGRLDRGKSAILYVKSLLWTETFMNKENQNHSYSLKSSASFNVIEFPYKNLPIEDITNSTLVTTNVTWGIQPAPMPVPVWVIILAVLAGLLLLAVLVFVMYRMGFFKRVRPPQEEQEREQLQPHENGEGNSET

Key:
integrin β1 (CD29) [1] = target: integrin β1 (CD29) (UniProt P05556); assay: co-immunoprecipitation from Seax cell lysate with anti-CD51 clone NKI-M9; 8% SDS-PAGE and Western blot
integrin β1 (CD29) [2] = target: integrin β1 (CD29) (UniProt P05556); assay: co-immunoprecipitation from Seax cell lysate with anti-CD51 clone NKI-M9; Western blot with anti-CD29 clone D6S1w

- binding (integrin β1 (CD29) [1]): binds
- binding (integrin β1 (CD29) [2]): binds
Substance: CD51 (αV-integrin, integrin alpha-V) (from UniProt P06756 31-1048) (receptor)
